Assay results: patent publication EP0414632B1, “Cyclosporin derivatives” (SANDOZ LTD., priority 1989, dated 1991)
At least one peptide structure holds a part that was inferred or is arguable (an end, a ring closure or a residue).

Columns and labels:
[1] = tested on: Freund's Adjuvant Arthritis; assay: Freund's adjuvant arthritis (developing and established models); assay type: in vivo, OFA and Wistar rats; conditions: Test method 4; swelling of the joints by micro-caliper
[2] = tested on: Kidney Allograft Reaction in the Rat; assay: Kidney allograft reaction in the rat; assay type: in vivo; conditions: Test method 2; treatment for 14 days from day of transplantation
[3] = tested on: Experimentally Induced Allergic Encephalomyelitis (EAE) in the Rat; assay: Experimentally induced allergic encephalomyelitis (EAE) in the rat; assay type: in vivo; conditions: Test method 3; male Wistar rats
[4] = tested on: Localised Graft-versus-Host (GvH) Reaction in the rat; assay: Localised Graft-versus-Host (GvH) reaction in the rat; assay type: in vivo; conditions: Test method 1; rats treated for 4 consecutive days, popliteal lymph nodes weighed on day 7

## C/C=C/C[C@@H](C)[C@@H](O)[C@H]1C(=O)N[C@@H](CC)C(=O)N(C)CC(=O)N(C)[C@@H](CC(C)C)C(=O)N[C@@H](C(C)C)C(=O)N(C)[C@@H](CC(C)C)C(=O)N[C@@H](C)C(=O)N[C@H](COCCO)C(=O)N(C)[C@@H](CC(C)C)C(=O)N(C)[C@@H](CC(C)C)C(=O)N(C)[C@@H](C(C)C)C(=O)N1C [Example 2, [0-(2-hydroxyethyl)(D)Ser]^8-Ciclosporin]
[1]
  ED = Dosage required to reduce swelling to that recorded for untreated controls: 20 mg/kg
[2]
  ED = Dosage required to prolong survival to >100 days in 100% of treated rats: 2.5 mg/kg
[3]
  ED = Dosage required to reduce disease symptomatology by 100% as compared with untreated controls: 25 mg/kg
[4]
  ED (ED50) = Dosage required to reduce average difference in weight between node pairs by 50% as compared with untreated controls: 25 (ED50) mg/kg
